This is one part of the list.
compound: O=C1NC(=O)C(c2cnc3ccccn23)=C1c1cn2c3c(cc(F)cc13)CN(C(=O)N1CCCCC1)CC2; assay: log2 fold change, soluble protein after heating vs DMSO (PISA); higher = thermal stabilisation; K562 cells, 10 uM, 30 min; active = over 0.2 and 3.5 SD of the protein, either way, in both replicates (recomputed)
How it was run: (§1)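 Soluble protein was defined as the supernatant after 21,000xg for 90 min. It came from K562 cells at 2×10^6 cells/mL given 10 μM compound for 30 min, heated in aliquots for 3 min across 48°C-58°C, pooled, and extracted in PBS with 0.5% NP-40 at 4°C, and was quantified by TMTpro 16plex LC-MS/MS with equalised channel sums. Thermal stability against control samples, from duplicates, is reported as log2 fold change.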

Sequences of proteins named here, by UniProt entry; tags and fusion partners are left off. A change or cut given only in a name is not applied to a line headed by its entry.
UniProt O15304: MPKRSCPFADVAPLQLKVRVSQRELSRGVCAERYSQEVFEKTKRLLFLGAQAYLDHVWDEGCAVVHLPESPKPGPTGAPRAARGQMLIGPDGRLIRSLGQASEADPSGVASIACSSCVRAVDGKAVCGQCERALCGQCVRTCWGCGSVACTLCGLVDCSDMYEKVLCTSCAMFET
UniProt Q86XK3: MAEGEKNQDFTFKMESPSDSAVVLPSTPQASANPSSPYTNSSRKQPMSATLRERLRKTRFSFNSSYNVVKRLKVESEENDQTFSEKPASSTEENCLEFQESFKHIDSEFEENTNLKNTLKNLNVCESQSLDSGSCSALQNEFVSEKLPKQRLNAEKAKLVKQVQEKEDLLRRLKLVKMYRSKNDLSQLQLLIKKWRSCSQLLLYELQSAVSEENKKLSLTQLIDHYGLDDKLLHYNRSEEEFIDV
UniProt P01011: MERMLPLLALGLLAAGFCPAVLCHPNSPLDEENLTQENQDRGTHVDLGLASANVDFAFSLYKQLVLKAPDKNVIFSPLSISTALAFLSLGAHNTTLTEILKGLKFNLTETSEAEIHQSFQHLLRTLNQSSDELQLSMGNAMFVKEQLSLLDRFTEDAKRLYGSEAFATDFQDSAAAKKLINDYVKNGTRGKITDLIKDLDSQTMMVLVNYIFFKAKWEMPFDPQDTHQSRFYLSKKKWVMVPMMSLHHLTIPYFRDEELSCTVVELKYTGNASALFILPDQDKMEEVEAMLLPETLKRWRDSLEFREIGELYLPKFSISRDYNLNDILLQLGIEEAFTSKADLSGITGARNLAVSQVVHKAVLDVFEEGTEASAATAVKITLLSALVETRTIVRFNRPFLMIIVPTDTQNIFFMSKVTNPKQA
UniProt P60059: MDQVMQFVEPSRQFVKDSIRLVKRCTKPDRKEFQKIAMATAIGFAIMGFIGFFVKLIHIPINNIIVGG
UniProt O75326: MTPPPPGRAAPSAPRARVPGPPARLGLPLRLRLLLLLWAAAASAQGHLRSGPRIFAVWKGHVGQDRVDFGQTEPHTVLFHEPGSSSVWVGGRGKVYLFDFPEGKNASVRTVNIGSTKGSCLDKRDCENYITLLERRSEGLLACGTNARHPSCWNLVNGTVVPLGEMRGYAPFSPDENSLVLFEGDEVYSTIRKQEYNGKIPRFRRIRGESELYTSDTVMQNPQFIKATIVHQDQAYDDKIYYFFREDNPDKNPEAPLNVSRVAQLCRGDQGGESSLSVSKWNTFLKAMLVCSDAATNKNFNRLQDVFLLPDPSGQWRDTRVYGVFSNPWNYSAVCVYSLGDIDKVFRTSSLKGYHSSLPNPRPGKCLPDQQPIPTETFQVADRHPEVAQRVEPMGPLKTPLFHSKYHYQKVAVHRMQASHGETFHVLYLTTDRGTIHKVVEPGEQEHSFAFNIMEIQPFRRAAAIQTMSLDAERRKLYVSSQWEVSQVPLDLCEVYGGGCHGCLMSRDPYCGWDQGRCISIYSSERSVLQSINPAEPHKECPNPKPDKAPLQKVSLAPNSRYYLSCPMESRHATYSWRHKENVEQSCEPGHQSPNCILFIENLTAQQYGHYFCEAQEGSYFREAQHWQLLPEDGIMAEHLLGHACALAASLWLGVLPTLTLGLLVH
UniProt Q9NP50: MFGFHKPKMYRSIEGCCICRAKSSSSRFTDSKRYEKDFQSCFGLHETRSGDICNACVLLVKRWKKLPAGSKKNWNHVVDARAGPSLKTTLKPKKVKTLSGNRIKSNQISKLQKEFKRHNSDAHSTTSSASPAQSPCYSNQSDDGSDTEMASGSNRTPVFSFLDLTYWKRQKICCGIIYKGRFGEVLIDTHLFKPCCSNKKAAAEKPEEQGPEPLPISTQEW
UniProt Q8NC51: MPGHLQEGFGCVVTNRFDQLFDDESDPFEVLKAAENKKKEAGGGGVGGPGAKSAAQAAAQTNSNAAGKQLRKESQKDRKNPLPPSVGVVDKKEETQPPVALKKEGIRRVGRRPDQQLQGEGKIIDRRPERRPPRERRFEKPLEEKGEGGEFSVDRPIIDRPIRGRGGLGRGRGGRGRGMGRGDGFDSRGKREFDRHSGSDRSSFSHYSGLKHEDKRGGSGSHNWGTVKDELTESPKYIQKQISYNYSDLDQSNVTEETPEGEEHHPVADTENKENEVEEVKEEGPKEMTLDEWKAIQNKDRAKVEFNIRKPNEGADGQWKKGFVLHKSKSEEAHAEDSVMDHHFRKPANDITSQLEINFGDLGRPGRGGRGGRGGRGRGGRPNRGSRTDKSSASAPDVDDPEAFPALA
UniProt Q8WWX9, whole entry, looked up: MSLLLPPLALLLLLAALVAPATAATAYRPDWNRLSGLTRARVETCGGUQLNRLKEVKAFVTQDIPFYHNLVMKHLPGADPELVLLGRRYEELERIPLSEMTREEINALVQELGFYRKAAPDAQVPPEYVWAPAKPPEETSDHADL
UniProt Q9UPX8: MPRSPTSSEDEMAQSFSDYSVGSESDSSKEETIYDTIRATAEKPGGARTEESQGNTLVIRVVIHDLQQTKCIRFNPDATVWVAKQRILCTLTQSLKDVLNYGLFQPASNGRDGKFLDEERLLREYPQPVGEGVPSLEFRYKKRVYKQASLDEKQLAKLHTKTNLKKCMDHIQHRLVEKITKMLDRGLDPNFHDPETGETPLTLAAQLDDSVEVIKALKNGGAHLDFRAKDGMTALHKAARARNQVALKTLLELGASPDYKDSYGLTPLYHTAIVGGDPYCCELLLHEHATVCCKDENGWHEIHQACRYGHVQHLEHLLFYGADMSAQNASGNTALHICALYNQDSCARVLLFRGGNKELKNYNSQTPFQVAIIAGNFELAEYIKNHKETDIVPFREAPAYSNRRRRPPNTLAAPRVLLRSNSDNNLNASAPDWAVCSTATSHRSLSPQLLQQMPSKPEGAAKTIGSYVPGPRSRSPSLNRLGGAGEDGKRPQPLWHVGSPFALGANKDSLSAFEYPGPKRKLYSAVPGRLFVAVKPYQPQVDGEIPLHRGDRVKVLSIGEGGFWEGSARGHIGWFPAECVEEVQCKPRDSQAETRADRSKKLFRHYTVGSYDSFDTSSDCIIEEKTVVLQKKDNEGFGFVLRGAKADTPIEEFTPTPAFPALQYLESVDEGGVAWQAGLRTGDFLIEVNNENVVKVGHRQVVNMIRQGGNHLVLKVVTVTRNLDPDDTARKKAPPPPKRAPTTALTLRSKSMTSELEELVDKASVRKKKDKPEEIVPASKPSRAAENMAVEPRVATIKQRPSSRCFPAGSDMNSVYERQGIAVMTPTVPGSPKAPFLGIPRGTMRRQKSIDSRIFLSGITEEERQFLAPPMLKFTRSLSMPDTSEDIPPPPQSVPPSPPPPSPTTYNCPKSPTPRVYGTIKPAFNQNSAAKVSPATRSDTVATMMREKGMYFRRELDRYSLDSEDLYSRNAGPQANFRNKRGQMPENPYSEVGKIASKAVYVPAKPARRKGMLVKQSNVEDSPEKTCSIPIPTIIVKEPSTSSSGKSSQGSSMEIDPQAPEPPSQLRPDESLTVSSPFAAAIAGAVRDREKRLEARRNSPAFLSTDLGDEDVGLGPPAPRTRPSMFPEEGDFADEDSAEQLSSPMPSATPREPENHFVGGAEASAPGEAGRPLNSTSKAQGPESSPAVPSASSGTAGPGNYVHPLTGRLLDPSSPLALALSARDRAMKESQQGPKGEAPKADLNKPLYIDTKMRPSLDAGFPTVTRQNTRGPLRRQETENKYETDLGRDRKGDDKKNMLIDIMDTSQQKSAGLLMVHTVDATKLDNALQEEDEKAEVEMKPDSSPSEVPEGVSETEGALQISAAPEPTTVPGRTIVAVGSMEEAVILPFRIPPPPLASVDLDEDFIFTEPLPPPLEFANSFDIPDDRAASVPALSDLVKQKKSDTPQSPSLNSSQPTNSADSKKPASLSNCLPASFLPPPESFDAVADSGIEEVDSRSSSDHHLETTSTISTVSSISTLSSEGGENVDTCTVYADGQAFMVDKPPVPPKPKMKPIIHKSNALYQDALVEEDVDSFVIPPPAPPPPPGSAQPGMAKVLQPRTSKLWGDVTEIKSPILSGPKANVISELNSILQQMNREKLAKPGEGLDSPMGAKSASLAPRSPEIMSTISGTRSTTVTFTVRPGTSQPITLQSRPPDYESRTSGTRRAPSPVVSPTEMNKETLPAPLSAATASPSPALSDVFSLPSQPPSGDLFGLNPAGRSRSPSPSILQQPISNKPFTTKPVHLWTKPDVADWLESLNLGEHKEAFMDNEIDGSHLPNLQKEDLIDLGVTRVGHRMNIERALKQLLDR
UniProt P55822: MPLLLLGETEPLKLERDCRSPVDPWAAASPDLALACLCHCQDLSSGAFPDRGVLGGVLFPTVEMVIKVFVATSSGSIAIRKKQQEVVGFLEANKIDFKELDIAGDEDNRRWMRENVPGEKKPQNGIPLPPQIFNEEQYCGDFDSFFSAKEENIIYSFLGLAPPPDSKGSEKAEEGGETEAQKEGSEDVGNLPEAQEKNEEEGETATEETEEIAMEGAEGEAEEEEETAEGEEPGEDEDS
UniProt Q9H0K1: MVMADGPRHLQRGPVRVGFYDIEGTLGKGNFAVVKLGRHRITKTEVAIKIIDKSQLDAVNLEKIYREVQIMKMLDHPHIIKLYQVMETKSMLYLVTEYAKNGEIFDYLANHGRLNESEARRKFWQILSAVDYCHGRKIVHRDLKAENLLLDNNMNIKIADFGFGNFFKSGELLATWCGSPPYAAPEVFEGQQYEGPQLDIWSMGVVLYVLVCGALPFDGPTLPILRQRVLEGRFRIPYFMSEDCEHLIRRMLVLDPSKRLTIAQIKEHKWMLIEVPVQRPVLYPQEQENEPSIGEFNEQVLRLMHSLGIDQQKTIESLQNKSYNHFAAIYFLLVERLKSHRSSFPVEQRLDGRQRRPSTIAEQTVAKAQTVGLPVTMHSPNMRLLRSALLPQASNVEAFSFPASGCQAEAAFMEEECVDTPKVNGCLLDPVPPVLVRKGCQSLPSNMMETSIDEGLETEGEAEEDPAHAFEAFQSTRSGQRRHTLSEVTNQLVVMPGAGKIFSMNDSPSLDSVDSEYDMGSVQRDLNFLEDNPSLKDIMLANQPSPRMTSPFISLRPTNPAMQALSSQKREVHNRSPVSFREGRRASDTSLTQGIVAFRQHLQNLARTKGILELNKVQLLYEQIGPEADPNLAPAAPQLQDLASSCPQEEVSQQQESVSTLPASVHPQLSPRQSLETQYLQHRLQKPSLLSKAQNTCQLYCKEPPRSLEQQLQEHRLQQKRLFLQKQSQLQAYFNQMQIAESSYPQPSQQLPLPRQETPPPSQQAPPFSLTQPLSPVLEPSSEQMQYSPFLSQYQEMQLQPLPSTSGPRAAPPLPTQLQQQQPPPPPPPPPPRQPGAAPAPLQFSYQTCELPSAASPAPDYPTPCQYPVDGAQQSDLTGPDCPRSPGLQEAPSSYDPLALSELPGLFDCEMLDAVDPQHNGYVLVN
UniProt P05155: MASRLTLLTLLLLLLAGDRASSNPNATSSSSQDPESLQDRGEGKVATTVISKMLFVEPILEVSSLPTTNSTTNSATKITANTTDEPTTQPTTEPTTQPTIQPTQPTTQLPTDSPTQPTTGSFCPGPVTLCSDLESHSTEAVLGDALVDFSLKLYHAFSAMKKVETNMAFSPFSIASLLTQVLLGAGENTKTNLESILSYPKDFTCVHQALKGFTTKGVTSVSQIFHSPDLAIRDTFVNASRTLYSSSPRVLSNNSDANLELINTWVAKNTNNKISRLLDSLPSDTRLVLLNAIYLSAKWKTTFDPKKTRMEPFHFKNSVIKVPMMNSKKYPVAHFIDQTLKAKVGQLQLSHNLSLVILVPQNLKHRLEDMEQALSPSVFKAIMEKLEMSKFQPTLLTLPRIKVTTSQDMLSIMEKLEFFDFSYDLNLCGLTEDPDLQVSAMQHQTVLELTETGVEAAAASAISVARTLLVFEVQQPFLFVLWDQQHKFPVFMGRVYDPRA
UniProt Q9NP31, whole entry, looked up: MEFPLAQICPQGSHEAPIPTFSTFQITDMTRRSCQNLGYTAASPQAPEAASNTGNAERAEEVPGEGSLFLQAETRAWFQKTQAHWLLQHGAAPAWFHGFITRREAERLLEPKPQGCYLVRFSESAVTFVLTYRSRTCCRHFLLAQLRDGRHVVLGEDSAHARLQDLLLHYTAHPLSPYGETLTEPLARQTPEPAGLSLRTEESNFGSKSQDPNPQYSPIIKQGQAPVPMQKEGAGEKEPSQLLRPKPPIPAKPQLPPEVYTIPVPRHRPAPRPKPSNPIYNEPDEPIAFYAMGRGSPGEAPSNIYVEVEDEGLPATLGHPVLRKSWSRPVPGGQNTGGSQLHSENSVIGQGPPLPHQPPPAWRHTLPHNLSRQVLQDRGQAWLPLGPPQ
UniProt O43255: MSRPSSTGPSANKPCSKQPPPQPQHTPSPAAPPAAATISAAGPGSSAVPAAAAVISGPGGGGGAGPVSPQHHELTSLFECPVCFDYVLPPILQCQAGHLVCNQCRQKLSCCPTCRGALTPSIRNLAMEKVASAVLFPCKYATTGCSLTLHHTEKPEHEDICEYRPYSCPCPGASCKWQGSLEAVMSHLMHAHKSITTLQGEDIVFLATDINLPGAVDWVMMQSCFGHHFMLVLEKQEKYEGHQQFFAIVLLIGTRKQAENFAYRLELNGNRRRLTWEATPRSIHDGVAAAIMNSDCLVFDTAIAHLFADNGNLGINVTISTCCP

log2 fold change, inactive:
SIVA1 (UniProt O15304) -0.128
SFR1 isoform 2 (UniProt Q86XK3) -0.18
SERPINA3 (UniProt P01011) -0.135
SEC61G (UniProt P60059) 0.124
SEMA7A (UniProt O75326) 0.048
SINHCAF (UniProt Q9NP50) 0.743
SHROOM1 (UniProt Q2M3G4) -0.142
SERBP1 isoform 3 (UniProt Q8NC51) -0.151
SERPINB6, A0A2R8Y7E5 -0.124
SELENOM (UniProt Q8WWX9) 0.15
SERPIND1 (UniProt P05546) -0.043
SHANK2 isoform 3 (UniProt Q9UPX8) -0.125
SH3BGR (UniProt P55822) 0.056

compound: c1cc(OCCN2CCCCC2)cc(-c2n[nH]c3ccc(-c4nnc[nH]4)cc23)c1; assay: as above
How it was run: as §1

log2 fold change, inactive:
SERPINA3 (UniProt P01011) 0.357
SIK2 (UniProt Q9H0K1) -0.34
SEC61G (UniProt P60059) -0.327
SERPING1 isoform 3 (UniProt P05155) 0.279
SH2D2A isoform 2 (UniProt Q9NP31) 0.08
SERBP1 isoform 3 (UniProt Q8NC51) -0.139
SIAH2 (UniProt O43255) 0.079
SH3GL3 isoform 3 (UniProt Q99963) -0.071
SERAC1 (UniProt Q96JX3) -0.091
SIRT3 (UniProt Q9NTG7) 0.028
SF1 (UniProt H7C0N4) 0.069
SIGIRR (UniProt H0YDR5) -0.126
SERPINB7 (UniProt O75635) 0.911
SERPINB5 (UniProt P36952) -0.152
SEPTIN2 (UniProt B5MCX3) -0.12
SH3BGR (UniProt P55822) 0.017
SIX5 (UniProt Q8N196) 0.018
